Assay results from PubChem BioAssay AID2685 (National Center for Advancing Translational Sciences (NCATS), 2010).
Screen size: about 320,000 compounds; about 2,100 (0.66%) were called active. This list was built around the results that the source calls inconclusive (neither active nor inactive); the mix of calls is not that of the screen. Calls follow the shape of the dose curve; as a rule, active = well fitted inhibition curve with a large enough effect in the signal ratio, with a control signal flat (not every such curve was filed as active); inconclusive = small, poorly fitted or top-dose-only effect, or effect the other way, or a change in a side signal; inactive = flat fitted curve, though single readings scatter; the % refers to the signal ratio. A potency beside an inconclusive call is a rough fit, not a confirmed value.

Test: qHTS Assay for Lipid Storage Modulators in Drosophila S3 Cells
Conditions: BODIPY lipid droplet fluorescence, 18-24 h, cells fed with added oleic acid; lipid storage change, negative = inhibition: at 46.1 µM (top of the series) unless noted
Outline: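 Drosophila S3 cells loaded with oleic acid (400 uM, as added) and compounds at several concentrations; lipid droplets imaged by 488-nm laser-scanning cytometry, 500–530 nm intensity and object ratio to cell channel. Percent activity normalized to 20 uM Triacsin C.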
% is scaled to controls: 0 for no effect and ±100 for the full control effect; potency is read from the fitted curve at half-maximal effect.

With Cc1ccccc1OCC(=O)NNC(=O)c1ccoc1C as the molecule, how does the lipid storage change, negative = inhibition read?
Its lipid storage change, negative = inhibition is inconclusive: 30.8%.

With CN=C(N)NC(=O)Nc1c(C)cccc1C as the molecule, how does the lipid storage change, negative = inhibition read?
The lipid storage change, negative = inhibition was inconclusive: -7.85%.

For Cc1ccc(Nc2nc(/N=C/NO)n[nH]2)cc1C, which Potency is on record?
The Potency was inconclusive: 29.1 µM [falling, single point].

Which “lipid storage change, negative = inhibition” value does the source give for CC1=N/C(=C/c2cccnc2)C(=O)O1 here?
Its value is inactive: 0.341%.

Which lipid storage change, negative = inhibition does the source give for CCCOc1ccc(Cl)cc1/C=C1/C(=O)ON=C1C here?
Its lipid storage change, negative = inhibition is inconclusive: 14.5%.

With CCOC(=O)c1oc2ccc(Cl)cc2c1NC(C)=O as the molecule, how does the lipid storage change, negative = inhibition read?
The lipid storage change, negative = inhibition was inconclusive: 5.99%.

With Nc1ccc(N2CCN(c3ccc(Cl)c(Cl)c3)CC2)cc1 as the molecule, how does the lipid storage change, negative = inhibition read?
The lipid storage change, negative = inhibition was inconclusive: 16.3%.

For CCOC(=O)c1ccc(NC(=S)NCCc2ccccc2)cc1, which lipid storage change, negative = inhibition is on record?
The lipid storage change, negative = inhibition was inconclusive: -19.4%.

With Cc1cccc(C)c1OCc1cc(C(=O)NC2CCC2)no1 as the molecule, how does the Potency read?
Its Potency is inconclusive: 7.31 µM [falling, partial curve, poor fit].

For COc1ccc(C(=O)Nc2cc([N+](=O)[O-])ccc2N2CCN(C)CC2)cc1, which lipid storage change, negative = inhibition is on record?
Its lipid storage change, negative = inhibition is inconclusive: 13.1%.

For CCc1cccc(NC(=O)Cc2ccc(OC)c(OC)c2)c1, which lipid storage change, negative = inhibition is on record?
The lipid storage change, negative = inhibition was inconclusive: -100%.

Which Potency does the source give for C1CN(c2nc3nonc3nc2N2CCOCC2)CCO1 here?
The Potency was inconclusive: 3.26 µM [falling, full curve, poor fit].

For O=C(Nc1cccc2ccccc12)N1CCN(c2ncccn2)CC1, which “lipid storage change, negative = inhibition” value is on record?
Its value is inactive: 9.88%.

With O=C(c1ccccc1)N1CC(COc2ccccc2)OC(c2ccco2)O1 (centres undefined) as the molecule, how does the lipid storage change, negative = inhibition read?
Its lipid storage change, negative = inhibition is inconclusive: 24%.

With Cn1nc(C(=O)NNC(=O)C2CSC3(C)CCC(=O)N23)c2ccccc2c1=O (centres undefined) as the molecule, how does the Potency read?
Its Potency is inconclusive: 2.31 µM [falling, full curve, poor fit].

Which lipid storage change, negative = inhibition does the source give for CN(C)c1ccc(/C=C2\SC(N3CCCCC3)=NC2=O)cc1 here?
The lipid storage change, negative = inhibition was inconclusive: -34.6%.

Which lipid storage change, negative = inhibition does the source give for CSc1ccccc1NC(=O)c1cccc(S(=O)(=O)N2CCN(C)CC2)c1 here?
Its lipid storage change, negative = inhibition is inconclusive: 50.1%.

Which lipid storage change, negative = inhibition does the source give for Nc1c(C(=O)c2ccc(Cl)cc2)sc2nc3c(cc12)CCC3 here?
The lipid storage change, negative = inhibition was inconclusive: 21.1%.

For COc1ccc(N2CC(C)Cn3c2nc2c3c(=O)n(Cc3ccccc3F)c(=O)n2C)c(OC)c1 (centres undefined), which lipid storage change, negative = inhibition is on record?
Its lipid storage change, negative = inhibition is inconclusive: 135%.

For Oc1ccccc1-c1cc(-c2ccccc2)no1, which Potency is on record?
The Potency was inconclusive: 2.91 µM [activator, partial curve, poor fit].

Which lipid storage change, negative = inhibition does the source give for Cc1ccc(C(=O)NCC(=O)N2CCCN(S(=O)(=O)c3ccc(C)cc3)CC2)cc1 here?
Its lipid storage change, negative = inhibition is “inconclusive”.

For COc1ccc(CCNC(=O)CSC2=NS(=O)(=O)c3ccccc3N2)cc1OC, which lipid storage change, negative = inhibition is on record?
The lipid storage change, negative = inhibition was inconclusive: 5.56%.

For CCc1ccc(NC(=O)Cn2nc(C)n3cccc3c2=O)cc1, which lipid storage change, negative = inhibition is on record?
The lipid storage change, negative = inhibition was inconclusive: 123%.

Which “lipid storage change, negative = inhibition” value does the source give for O=C(c1ccc2c(c1)OCO2)C1CCCN(Cc2cc(F)ccc2-n2cccn2)C1 (centres undefined) here?
The value was inactive: 17%.

Which lipid storage change, negative = inhibition does the source give for CCOC(=O)N1CCN(C(=O)CSc2ccc3nnc(-c4cccnc4)n3n2)CC1 here?
Its lipid storage change, negative = inhibition is inconclusive: -90.4%.

Which Potency does the source give for CC(=O)/C(=N/Nc1cccc(C)c1)N1CCOCC1 here?
Its Potency is inconclusive: 1.64 µM [activator, partial curve].

Which lipid storage change, negative = inhibition does the source give for CC(OC(=O)COc1cccc2c1OC(C)(C)C2)C(=O)Nc1ccc(S(N)(=O)=O)cc1 (centres undefined) here?
Its lipid storage change, negative = inhibition is “inconclusive”.

For C=C(C)Cn1c(N2CCN(CC)CC2)nc2c1c(=O)[nH]c(=O)n2C, which lipid storage change, negative = inhibition is on record?
The lipid storage change, negative = inhibition was inconclusive: 5.81%.

With CC(=O)Nc1cccc(O)c1 as the molecule, how does the Potency read?
The Potency was inconclusive: 4.61 µM [falling, single point].

With CC(C)Oc1cccc(C(=O)N2CCCC2)c1 as the molecule, how does the “lipid storage change, negative = inhibition” value read?
Its value is inactive: -2.89%.

Which lipid storage change, negative = inhibition does the source give for Cc1ccc(NC(=O)c2ccccn2)c(Br)c1 here?
The lipid storage change, negative = inhibition was inconclusive: 1.51%.

Which Potency does the source give for O=C(COC(=O)c1ccc(S(=O)(=O)N2CCCCC2)cc1)Nc1ccccc1Cl here?
Its Potency is inconclusive: 2.06 µM [falling, partial curve, poor fit].

Which lipid storage change, negative = inhibition does the source give for CC(Sc1ccc(Cl)cc1)C(=O)Nc1ccccc1C(=O)N1CCOCC1 (centres undefined) here?
The lipid storage change, negative = inhibition was inconclusive: 1.12%.

For COCC(=O)NCCc1ccc(S(N)(=O)=O)cc1, which lipid storage change, negative = inhibition is on record?
Its lipid storage change, negative = inhibition is inconclusive: -45.3%.

Which lipid storage change, negative = inhibition does the source give for CC1(C)CC(=O)NC=C(c2ccccc2)C1 here?
Its lipid storage change, negative = inhibition is inconclusive: 20.4%.

For O=C(Nc1cccnc1Cl)c1cc(-c2ccc(Br)cc2)on1, which Potency is on record?
The Potency was inconclusive: 0.58 µM [activator, single point].

With Cc1cc(Br)ccc1NC(=O)c1sc2ncn(CC(=O)N3CCN(c4ccccn4)CC3)c(=O)c2c1C as the molecule, how does the lipid storage change, negative = inhibition read?
The lipid storage change, negative = inhibition was inconclusive: 8.66%.

With O=C1NC(c2cccc(Cl)c2)Nc2ccccc21 (centres undefined) as the molecule, how does the lipid storage change, negative = inhibition read?
Its lipid storage change, negative = inhibition is inconclusive: -6.93%.

For O=C(NCc1ccc(F)cc1)c1cccs1, which lipid storage change, negative = inhibition is on record?
Its lipid storage change, negative = inhibition is inconclusive: -100%.

Which Potency does the source give for Cc1cc(C)n2[nH]c(=O)c(N=Nc3cccc(C(F)(F)F)c3)c2n1 here?
Its Potency is inconclusive: 29.1 µM [falling, single point].

Which Potency does the source give for Cc1ccc(C(=O)OCc2cc3ccccc3[nH]c2=O)cc1 here?
The Potency was inconclusive: 20.6 µM [activator, single point].

With CCOc1ccc(NC(=O)CN(C)C(=O)c2cc3c(s2)CCCCC3)cc1OCC as the molecule, how does the lipid storage change, negative = inhibition read?
The lipid storage change, negative = inhibition was “inconclusive”.

Which lipid storage change, negative = inhibition does the source give for COc1ccc2nc(NC(=O)CSc3n[nH]c(N)n3)sc2c1 here?
The lipid storage change, negative = inhibition was inconclusive: -64.5%.

For CCOC(=O)C1C(c2cccs2)NC(=O)NC1(O)C(F)(F)F (centres undefined), which Potency is on record?
Its Potency is inconclusive: 29.1 µM [falling, single point].

With CC(=O)Nc1ccc(S(=O)(=O)NCCc2c[nH]c3ccc(C)cc23)cc1 as the molecule, how does the lipid storage change, negative = inhibition read?
The lipid storage change, negative = inhibition was inconclusive: 49.9%.

For CCCN1CCOC(CC(=O)Nc2ccc([N+](=O)[O-])cc2)C1=O (centres undefined), which lipid storage change, negative = inhibition is on record?
The lipid storage change, negative = inhibition was inconclusive: 5.97%.

Which lipid storage change, negative = inhibition does the source give for Cc1ccc(COC(=O)c2cc(S(=O)(=O)N3CCOCC3)ccc2C)cc1 here?
The lipid storage change, negative = inhibition was inconclusive: 16.3%.

For CCOc1ccccc1NC(=S)Nc1ccc2cn[nH]c2c1, which lipid storage change, negative = inhibition is on record?
Its lipid storage change, negative = inhibition is inconclusive: 22.4%.

Which lipid storage change, negative = inhibition does the source give for Cc1ccc(N2C(S)=C(C#N)C(=O)NC2c2ccco2)cc1 (centres undefined) here?
Its lipid storage change, negative = inhibition is inconclusive: -14.8%.

For COc1ccc2[nH]cc(CCNC(=S)NCCc3ccccc3)c2c1, which lipid storage change, negative = inhibition is on record?
Its lipid storage change, negative = inhibition is inconclusive: 22.3%.

For CN(C)CC(C)(C)CNC(=O)CC1C(=O)NCCN1Cc1ccc(-c2ccccc2)cc1 (centres undefined), which lipid storage change, negative = inhibition is on record?
The lipid storage change, negative = inhibition was inconclusive: 32.1%.

With Cc1cccc(N2CCN(C(=O)C(C)n3nc(C)n4c(cc5occc54)c3=O)CC2)c1C (centres undefined) as the molecule, how does the lipid storage change, negative = inhibition read?
Its lipid storage change, negative = inhibition is inconclusive: -34.3%.

With COc1cc(/C=C2\SC(=S)N(NC(=O)c3ccccc3OC)C2=O)ccc1O as the molecule, how does the lipid storage change, negative = inhibition read?
The lipid storage change, negative = inhibition was inconclusive: -124%.

Which lipid storage change, negative = inhibition does the source give for O=C(C1COc2ccccc2O1)N1CCN(c2ccccc2Cl)CC1 (centres undefined) here?
Its lipid storage change, negative = inhibition is inconclusive: 16.6%.
